Some of the results follow. Single values are uncertain, as repeats are few or missing.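 The apoptosis fraction was the count of cleaved-PARP antibody-stained nuclei relative to all DNA-stained nuclei, imaged in 1,536-well plates. Screening doses were set so most cells survived, and baseline and induced cleaved-PARP levels vary greatly across cell lines.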

Assay in all cases: cleaved PARP positive nuclei fraction relative to DMSO control; melanoma cells; higher = more apoptosis
What all share (details): library dose: low library concentration; 72 h

Experiment [1] has as its system 501Mel.
The subject of experiment [2] is A101D.
The subject of experiment [3] is A2058.
Experiment [4] relates to A375.
Experiment [5] concerns C32.
For experiment [6], the system named is CBRC008 (line from a melanoma biopsy).
The test system of experiment [7] is CBRC014 (line from a melanoma biopsy).
In experiment [8] the test system is CBRC016 (line from a melanoma biopsy).
Experiment [9] deals with CBRC017 (line from a melanoma biopsy).

`N#CC[C@H](C1CCCC1)n1cc(-c2ncnc3[nH]ccc23)cn1` [ruxolitinib] + C[C@]12O[C@H](C[C@]1(O)CO)n1c3ccccc3c3c4c(c5c6ccccc6n2c5c31)CNC4=O [Lestaurtinib] (first compound 1 µM, partner dose 0.004 µM): the “cleaved PARP positive nuclei fraction” value came to 868% in [1]; 43.8% in experiment [2]; 115% in experiment [3]; 91.2% in experiment [4]; 38.3% in experiment [5]; 80.4% in [6]. Moreover, the “cleaved PARP positive nuclei fraction” value in experiment [7] came to 105%; in experiment [8], 198%; in experiment [9], 95.5%.

As to `Cn1cc(C2=C(c3cn(C4CCN(Cc5ccccn5)CC4)c4ccccc34)C(=O)NC2=O)c2ccccc21` [Enzastaurin] + Cc1cc(Nc2cc(N3CCN(C)CC3)nc(/C=C/c3ccccc3)n2)n[nH]1 [ENMD2076] (first compound 0.8 µM, partner dose 0.04 µM), the “cleaved PARP positive nuclei fraction” value was determined as 74.4% in [1]; 147% in [2]; 137% in experiment [3]; 238% in experiment [4]; 71% in [5]; 207% in experiment [6]. Besides, the results for the “cleaved PARP positive nuclei fraction” value in experiment [7], in experiment [8] and in [9] were 91.6%, 101% and 86.8%, respectively.

With `CC1(C)CCC(c2ccc(Cl)cc2)=C(CN2CCN(c3ccc(C(=O)NS(=O)(=O)c4ccc(N[C@H](CCN5CCOCC5)CSc5ccccc5)c(S(=O)(=O)C(F)(F)F)c4)cc3)CC2)C1` + N.N.[Cl][Pt][Cl] [cisplatin] (first compound 0.4 µM, partner dose 1.6 µM), the “cleaved PARP positive nuclei fraction” value stood at 73.5% in experiment [1]; 317% in experiment [2]; 366% in experiment [3]; 413% in experiment [4]; 118% in [5]; 1310% in experiment [6]. The “cleaved PARP positive nuclei fraction” value in [7] was found to be 559%; in [8], 796%; in experiment [9], 243%.

For `Cc1ccc(Nc2nccc(N(C)c3ccc4c(C)n(C)nc4c3)n2)cc1S(N)(=O)=O` [Pazopanib] + C[As](C)SC[C@H](NC(=O)CC[C@H](N)C(=O)O)C(=O)NCC(=O)O [Darinaparsin] (first compound 0.4 µM, partner dose 0.4 µM), the “cleaved PARP positive nuclei fraction” value was 63% in experiment [1]; 126% in [2]; 136% in [3]; 47.8% in experiment [4]; 69.3% in experiment [5]; 86.8% in experiment [6]. The “cleaved PARP positive nuclei fraction” value in experiment [7] worked out at 117%; in [8], 79.3%; in experiment [9], 123%.

As to `N.N.[Cl][Pt][Cl]` [cisplatin] + O=C(O)[C@@H]1[O][Sb](=[O])([O][Sb]2(=[O])[O][C@H]([C@H](O)CO)[C@H](O)[C@H](C(=O)O)[O]2)[O][C@H]([C@H](O)CO)[C@@H]1O [stibogluconate] (first compound 1.6 µM, partner dose 2 µM), the “cleaved PARP positive nuclei fraction” value was 75.9% in experiment [1]; 258% in experiment [2]; 51.1% in [3]; 139% in [4]; 40.5% in experiment [5]; 162% in [6]. The “cleaved PARP positive nuclei fraction” value was 111% in experiment [7], 31.7% in experiment [8] and 104% in experiment [9].

For `Cc1cc(Nc2cc(N3CCN(C)CC3)nc(Sc3ccc(NC(=O)C4CC4)cc3)n2)n[nH]1` [Tozasertib] + C[As](C)SC[C@H](NC(=O)CC[C@H](N)C(=O)O)C(=O)NCC(=O)O [Darinaparsin] (first compound 0.006 µM, partner dose 0.4 µM), the “cleaved PARP positive nuclei fraction” value in experiment [1] amounted to 94.5%; in experiment [2], 145%; in [3] it was 108%; in experiment [4], 99.3%; in experiment [5], 70.4%; in experiment [6], 60.9%. Moreover, the entries for the “cleaved PARP positive nuclei fraction” value in experiment [7], in experiment [8] and in experiment [9] were 103%, 148% and 169%, respectively.

Turning to `O=C(Nc1cc(C(F)(F)F)cc(C(F)(F)F)c1)c1cc(Cl)ccc1O` + Cn1cc(C2=C(c3cn(C4CCN(Cc5ccccn5)CC4)c4ccccc34)C(=O)NC2=O)c2ccccc21 [Enzastaurin] (first compound 0.016 µM, partner dose 0.8 µM), the “cleaved PARP positive nuclei fraction” value in experiment [1] turned out to be 79.5%; in [2] it was 251%; in experiment [3], 140%; in [4], 94%; in [5], 63.2%; in [6], 121%. Also, the “cleaved PARP positive nuclei fraction” value in experiment [7] was determined as 91.5%; in experiment [8], 148%; in experiment [9] it was 106%.

As to `N.N.[Cl][Pt][Cl]` [cisplatin] + C=CCNC1=C2C[C@@H](C)C[C@H](OC)[C@H](O)[C@@H](C)/C=C(\C)[C@H](OC(N)=O)[C@@H](OC)/C=C\C=C(/C)C(=O)NC(=CC1=O)C2=O [Tanespimycin] (first compound 1.6 µM, partner dose 0.002 µM), the “cleaved PARP positive nuclei fraction” value in [1] turned out to be 182%; in [2] it was 105%; in [3], 71.3%; in experiment [4], 120%; in [5], 80%; in experiment [6] it was 95.8%. The figures for the “cleaved PARP positive nuclei fraction” value in experiment [7], in experiment [8] and in experiment [9] were 104%, 133% and 85.9%, respectively.

For the compound `CS(=O)(=O)c1ccc(C(=O)Nc2ccc(Cl)c(-c3ccccn3)c2)c(Cl)c1` [vismodegib] + C[As](C)SC[C@H](NC(=O)CC[C@H](N)C(=O)O)C(=O)NCC(=O)O [Darinaparsin] (first compound 1 µM, partner dose 0.4 µM), the “cleaved PARP positive nuclei fraction” value is 154% in [1]; 74% in experiment [2]; 88.8% in experiment [3]; 149% in [4]; 226% in [5]; 180% in experiment [6]. Further, the “cleaved PARP positive nuclei fraction” value in [7] stood at 83.8%; in experiment [8], 29.4%; in [9], 81.9%.

For `C=CCNC1=C2C[C@@H](C)C[C@H](OC)[C@H](O)[C@@H](C)/C=C(\C)[C@H](OC(N)=O)[C@@H](OC)/C=C\C=C(/C)C(=O)NC(=CC1=O)C2=O` [Tanespimycin] + C[As](C)SC[C@H](NC(=O)CC[C@H](N)C(=O)O)C(=O)NCC(=O)O [Darinaparsin] (first compound 0.002 µM, partner dose 0.4 µM), the “cleaved PARP positive nuclei fraction” value amounted to 146% in experiment [1]; 48.9% in [2]; 165% in [3]; 79.9% in experiment [4]; 172% in [5]; 169% in [6]. Moreover, the “cleaved PARP positive nuclei fraction” value in experiment [7] was 113%; in [8], 67.3%; in experiment [9], 95.1%.

In the case of `C[C@]12O[C@H](C[C@]1(O)CO)n1c3ccccc3c3c4c(c5c6ccccc6n2c5c31)CNC4=O` [Lestaurtinib] + C#Cc1cccc(Nc2ncnc3cc(OCCOC)c(OCCOC)cc23)c1 [erlotinib] (first compound 0.004 µM, partner dose 0.8 µM), the “cleaved PARP positive nuclei fraction” value in experiment [1] came to 98.6%; in [2], 106%; in experiment [3] it was 228%; in [4] it was 59.3%; in [5], 81.5%; in experiment [6] it was 265%. In addition, the “cleaved PARP positive nuclei fraction” value amounted to 94.5% in experiment [7], 44.8% in experiment [8] and 86.9% in [9].

The values are drawn from the supplement of paper PMC4604168 (melanoma cell lines).
